From publication PMC2929220 come the findings set out here.

Sequences of proteins named here, by UniProt entry; tags and fusion partners are left off. A change or cut given only in a name is not applied to a line headed by its entry. Residues count along the entry.
UniProt Q14974: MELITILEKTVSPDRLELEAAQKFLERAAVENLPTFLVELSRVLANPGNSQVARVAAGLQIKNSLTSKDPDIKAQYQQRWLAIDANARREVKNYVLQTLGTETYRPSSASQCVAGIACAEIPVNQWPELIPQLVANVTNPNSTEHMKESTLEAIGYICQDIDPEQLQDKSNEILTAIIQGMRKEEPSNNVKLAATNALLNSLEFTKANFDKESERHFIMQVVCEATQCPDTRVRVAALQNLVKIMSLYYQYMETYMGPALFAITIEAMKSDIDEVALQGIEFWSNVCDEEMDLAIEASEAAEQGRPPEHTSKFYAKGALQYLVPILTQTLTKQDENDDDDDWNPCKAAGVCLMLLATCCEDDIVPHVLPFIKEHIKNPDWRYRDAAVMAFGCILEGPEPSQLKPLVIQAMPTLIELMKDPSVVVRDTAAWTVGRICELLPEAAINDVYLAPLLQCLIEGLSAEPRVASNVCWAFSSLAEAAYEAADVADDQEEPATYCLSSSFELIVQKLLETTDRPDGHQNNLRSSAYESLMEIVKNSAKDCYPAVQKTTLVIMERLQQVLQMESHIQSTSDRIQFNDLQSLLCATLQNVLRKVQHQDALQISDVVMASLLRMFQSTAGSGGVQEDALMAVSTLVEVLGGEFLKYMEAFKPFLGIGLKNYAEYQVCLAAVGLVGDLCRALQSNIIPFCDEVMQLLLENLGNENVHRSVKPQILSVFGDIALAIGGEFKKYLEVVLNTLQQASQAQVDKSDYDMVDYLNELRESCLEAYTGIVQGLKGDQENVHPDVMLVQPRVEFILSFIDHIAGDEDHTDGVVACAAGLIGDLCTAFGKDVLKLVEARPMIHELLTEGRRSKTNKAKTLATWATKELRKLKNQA
UniProt A9QM74: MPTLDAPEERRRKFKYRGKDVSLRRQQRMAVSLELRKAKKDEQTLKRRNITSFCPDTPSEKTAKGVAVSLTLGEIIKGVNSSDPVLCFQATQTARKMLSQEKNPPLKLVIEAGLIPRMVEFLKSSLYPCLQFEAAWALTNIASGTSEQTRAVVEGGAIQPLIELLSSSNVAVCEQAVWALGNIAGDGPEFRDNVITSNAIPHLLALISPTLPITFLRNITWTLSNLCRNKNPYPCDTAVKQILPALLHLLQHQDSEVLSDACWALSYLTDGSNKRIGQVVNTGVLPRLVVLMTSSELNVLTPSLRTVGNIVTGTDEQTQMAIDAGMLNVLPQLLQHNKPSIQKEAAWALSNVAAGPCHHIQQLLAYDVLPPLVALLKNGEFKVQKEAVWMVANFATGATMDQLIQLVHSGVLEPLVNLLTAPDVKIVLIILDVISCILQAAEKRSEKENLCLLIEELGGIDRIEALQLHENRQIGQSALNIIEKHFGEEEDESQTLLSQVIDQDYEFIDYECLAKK
GST fusion of the IBB domain from KPNA7: residues 1-57 of A9QM74
UniProt O00629: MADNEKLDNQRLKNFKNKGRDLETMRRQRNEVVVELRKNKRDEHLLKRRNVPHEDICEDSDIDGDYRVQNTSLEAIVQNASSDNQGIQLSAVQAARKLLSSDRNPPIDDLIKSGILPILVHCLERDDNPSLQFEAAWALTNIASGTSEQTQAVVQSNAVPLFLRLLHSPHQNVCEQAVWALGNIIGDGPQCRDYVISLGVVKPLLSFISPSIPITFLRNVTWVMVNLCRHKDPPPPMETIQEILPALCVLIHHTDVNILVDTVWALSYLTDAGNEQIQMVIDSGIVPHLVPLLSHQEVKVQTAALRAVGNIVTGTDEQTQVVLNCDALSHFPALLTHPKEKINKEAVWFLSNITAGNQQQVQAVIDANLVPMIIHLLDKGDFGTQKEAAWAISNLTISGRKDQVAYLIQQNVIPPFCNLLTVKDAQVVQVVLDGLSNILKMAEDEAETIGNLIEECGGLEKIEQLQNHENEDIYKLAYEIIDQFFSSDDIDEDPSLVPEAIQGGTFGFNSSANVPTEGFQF
UniProt P52294: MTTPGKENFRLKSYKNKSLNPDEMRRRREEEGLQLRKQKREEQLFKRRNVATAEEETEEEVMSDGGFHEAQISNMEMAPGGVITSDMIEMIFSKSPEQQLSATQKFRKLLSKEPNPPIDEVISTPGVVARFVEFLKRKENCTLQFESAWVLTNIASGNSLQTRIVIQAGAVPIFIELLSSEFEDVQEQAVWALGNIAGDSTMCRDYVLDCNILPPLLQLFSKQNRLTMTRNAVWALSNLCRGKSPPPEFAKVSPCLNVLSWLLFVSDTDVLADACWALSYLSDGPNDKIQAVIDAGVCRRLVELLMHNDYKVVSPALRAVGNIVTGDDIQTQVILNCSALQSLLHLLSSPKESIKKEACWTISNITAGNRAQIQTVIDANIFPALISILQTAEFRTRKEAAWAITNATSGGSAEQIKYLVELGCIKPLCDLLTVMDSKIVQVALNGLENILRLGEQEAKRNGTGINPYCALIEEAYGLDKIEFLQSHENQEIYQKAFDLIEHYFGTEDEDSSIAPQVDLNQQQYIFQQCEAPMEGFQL
UniProt O00505: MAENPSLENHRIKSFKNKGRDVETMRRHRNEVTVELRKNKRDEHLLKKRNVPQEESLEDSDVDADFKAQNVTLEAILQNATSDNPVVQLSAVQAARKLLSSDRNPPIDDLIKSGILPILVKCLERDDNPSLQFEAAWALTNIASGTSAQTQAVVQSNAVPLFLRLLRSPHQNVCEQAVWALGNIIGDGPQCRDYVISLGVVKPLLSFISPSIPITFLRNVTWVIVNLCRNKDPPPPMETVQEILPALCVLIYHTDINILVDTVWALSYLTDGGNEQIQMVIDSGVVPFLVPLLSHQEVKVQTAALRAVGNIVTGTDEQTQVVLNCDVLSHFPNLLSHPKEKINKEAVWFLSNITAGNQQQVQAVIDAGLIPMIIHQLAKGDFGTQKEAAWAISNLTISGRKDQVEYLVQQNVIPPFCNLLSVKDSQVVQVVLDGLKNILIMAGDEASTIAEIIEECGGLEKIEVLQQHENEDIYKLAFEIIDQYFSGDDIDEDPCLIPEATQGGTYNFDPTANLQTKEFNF
UniProt O15131: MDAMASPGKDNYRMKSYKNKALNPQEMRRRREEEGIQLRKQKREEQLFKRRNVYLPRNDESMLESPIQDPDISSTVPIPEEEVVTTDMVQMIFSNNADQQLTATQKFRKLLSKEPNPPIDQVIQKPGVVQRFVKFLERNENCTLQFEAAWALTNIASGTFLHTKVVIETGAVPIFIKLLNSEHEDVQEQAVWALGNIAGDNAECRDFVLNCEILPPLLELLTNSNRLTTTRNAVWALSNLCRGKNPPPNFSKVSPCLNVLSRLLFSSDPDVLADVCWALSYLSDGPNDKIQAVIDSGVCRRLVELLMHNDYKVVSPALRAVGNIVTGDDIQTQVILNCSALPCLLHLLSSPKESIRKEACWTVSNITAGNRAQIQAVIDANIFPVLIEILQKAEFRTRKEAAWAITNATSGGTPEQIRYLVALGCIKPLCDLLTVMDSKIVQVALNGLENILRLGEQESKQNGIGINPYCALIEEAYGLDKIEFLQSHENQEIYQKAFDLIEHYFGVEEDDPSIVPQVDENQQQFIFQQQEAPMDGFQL

Like-named read-outs stand apart in the source and are kept apart here. Results are given in words; binding and its absence hold for the method and conditions named. For some assays here: Binding seen in cells or lysates may run through a third protein. Some binding calls cover weakened binding; strength is not graded here.

Experiment [1] concerns the target GST-importin β (UniProt Q14974).
Experiment [2] has the same target. This is another data set of the same source.
Experiment [3] concerns the target GST fusion of the IBB domain from KPNA7 (human) (UniProt A9QM74). As to the kind of experiment: pull-down; preformed GST-IBB-importin β complexes on glutathione beads, RanQ69L-GTP (15 μM) added afterwards; bound and eluted fractions by semi-quantitative immunoblotting (IRDye secondary antibody, Odyssey); both purified. In general terms: Immunoblotting shows a protein as a band on a membrane.

The target is the same in experiment [4]. The experiment can be described thus: pull-down; GST-IBB domains immobilised on glutathione beads; His-tagged recombinant importin β (1 μM) added without or with RanQ69L-GTP (15 μM) in the binding reaction; bound fractions immunoblotted for importin β; both purified.

Consider KPNA4 (from UniProt O00629 1-521), for which, in the experiment with GST-importin β [1], the binding entry is recorded as “binds weakly”. Take KPNA1 (from UniProt P52294 1-538): the binding entry with GST-importin β [1] was “binds weakly”.

Take KPNA6 (from UniProt O60684 1-536): the binding entry with GST-importin β [1] is recorded as “binds weakly”.

In the case of “Karyopherin α7 (KPNA7) (from UniProt A9QM74 1-516)”, the binding entry in the experiment with GST-importin β [2] was “binds”. Take KPNA3 (from UniProt O00505 1-521): in the experiment with GST-importin β [1], the binding result was “binds weakly”. For “His-tagged, recombinant importin β (from UniProt Q14974 1-876)”, the binding entry in experiment [3] and in experiment [4] was “binds” throughout. As to KPNA5 (from UniProt O15131 1-539), in the experiment with GST-importin β [1], the binding result is on record as “binds weakly”.
